Test results published in paper PMC6786873.
Results are given in words; binding and its absence hold for the method and conditions named. In cells and extracts the contact can be indirect. These calls come from enrichment with a bait or labelling near it, and not all partners need be listed.

Chains of the proteins cited; added tags and fusions are not shown.
UniProt P19525: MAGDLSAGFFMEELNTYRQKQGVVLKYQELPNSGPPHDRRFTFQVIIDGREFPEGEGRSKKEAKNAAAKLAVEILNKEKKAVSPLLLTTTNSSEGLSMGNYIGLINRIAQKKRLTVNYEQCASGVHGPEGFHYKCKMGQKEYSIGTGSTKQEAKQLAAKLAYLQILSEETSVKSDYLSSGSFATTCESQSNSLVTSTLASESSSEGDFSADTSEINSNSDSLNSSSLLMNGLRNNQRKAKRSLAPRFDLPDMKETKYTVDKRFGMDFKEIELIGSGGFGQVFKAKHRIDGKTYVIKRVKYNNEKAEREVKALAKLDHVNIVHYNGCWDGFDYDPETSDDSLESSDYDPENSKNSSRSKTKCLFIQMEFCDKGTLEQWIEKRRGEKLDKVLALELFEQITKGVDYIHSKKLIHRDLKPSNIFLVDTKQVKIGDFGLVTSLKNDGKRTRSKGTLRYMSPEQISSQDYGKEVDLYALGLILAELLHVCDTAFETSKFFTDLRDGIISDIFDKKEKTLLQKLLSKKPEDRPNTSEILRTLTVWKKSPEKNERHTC
UniProt O94915: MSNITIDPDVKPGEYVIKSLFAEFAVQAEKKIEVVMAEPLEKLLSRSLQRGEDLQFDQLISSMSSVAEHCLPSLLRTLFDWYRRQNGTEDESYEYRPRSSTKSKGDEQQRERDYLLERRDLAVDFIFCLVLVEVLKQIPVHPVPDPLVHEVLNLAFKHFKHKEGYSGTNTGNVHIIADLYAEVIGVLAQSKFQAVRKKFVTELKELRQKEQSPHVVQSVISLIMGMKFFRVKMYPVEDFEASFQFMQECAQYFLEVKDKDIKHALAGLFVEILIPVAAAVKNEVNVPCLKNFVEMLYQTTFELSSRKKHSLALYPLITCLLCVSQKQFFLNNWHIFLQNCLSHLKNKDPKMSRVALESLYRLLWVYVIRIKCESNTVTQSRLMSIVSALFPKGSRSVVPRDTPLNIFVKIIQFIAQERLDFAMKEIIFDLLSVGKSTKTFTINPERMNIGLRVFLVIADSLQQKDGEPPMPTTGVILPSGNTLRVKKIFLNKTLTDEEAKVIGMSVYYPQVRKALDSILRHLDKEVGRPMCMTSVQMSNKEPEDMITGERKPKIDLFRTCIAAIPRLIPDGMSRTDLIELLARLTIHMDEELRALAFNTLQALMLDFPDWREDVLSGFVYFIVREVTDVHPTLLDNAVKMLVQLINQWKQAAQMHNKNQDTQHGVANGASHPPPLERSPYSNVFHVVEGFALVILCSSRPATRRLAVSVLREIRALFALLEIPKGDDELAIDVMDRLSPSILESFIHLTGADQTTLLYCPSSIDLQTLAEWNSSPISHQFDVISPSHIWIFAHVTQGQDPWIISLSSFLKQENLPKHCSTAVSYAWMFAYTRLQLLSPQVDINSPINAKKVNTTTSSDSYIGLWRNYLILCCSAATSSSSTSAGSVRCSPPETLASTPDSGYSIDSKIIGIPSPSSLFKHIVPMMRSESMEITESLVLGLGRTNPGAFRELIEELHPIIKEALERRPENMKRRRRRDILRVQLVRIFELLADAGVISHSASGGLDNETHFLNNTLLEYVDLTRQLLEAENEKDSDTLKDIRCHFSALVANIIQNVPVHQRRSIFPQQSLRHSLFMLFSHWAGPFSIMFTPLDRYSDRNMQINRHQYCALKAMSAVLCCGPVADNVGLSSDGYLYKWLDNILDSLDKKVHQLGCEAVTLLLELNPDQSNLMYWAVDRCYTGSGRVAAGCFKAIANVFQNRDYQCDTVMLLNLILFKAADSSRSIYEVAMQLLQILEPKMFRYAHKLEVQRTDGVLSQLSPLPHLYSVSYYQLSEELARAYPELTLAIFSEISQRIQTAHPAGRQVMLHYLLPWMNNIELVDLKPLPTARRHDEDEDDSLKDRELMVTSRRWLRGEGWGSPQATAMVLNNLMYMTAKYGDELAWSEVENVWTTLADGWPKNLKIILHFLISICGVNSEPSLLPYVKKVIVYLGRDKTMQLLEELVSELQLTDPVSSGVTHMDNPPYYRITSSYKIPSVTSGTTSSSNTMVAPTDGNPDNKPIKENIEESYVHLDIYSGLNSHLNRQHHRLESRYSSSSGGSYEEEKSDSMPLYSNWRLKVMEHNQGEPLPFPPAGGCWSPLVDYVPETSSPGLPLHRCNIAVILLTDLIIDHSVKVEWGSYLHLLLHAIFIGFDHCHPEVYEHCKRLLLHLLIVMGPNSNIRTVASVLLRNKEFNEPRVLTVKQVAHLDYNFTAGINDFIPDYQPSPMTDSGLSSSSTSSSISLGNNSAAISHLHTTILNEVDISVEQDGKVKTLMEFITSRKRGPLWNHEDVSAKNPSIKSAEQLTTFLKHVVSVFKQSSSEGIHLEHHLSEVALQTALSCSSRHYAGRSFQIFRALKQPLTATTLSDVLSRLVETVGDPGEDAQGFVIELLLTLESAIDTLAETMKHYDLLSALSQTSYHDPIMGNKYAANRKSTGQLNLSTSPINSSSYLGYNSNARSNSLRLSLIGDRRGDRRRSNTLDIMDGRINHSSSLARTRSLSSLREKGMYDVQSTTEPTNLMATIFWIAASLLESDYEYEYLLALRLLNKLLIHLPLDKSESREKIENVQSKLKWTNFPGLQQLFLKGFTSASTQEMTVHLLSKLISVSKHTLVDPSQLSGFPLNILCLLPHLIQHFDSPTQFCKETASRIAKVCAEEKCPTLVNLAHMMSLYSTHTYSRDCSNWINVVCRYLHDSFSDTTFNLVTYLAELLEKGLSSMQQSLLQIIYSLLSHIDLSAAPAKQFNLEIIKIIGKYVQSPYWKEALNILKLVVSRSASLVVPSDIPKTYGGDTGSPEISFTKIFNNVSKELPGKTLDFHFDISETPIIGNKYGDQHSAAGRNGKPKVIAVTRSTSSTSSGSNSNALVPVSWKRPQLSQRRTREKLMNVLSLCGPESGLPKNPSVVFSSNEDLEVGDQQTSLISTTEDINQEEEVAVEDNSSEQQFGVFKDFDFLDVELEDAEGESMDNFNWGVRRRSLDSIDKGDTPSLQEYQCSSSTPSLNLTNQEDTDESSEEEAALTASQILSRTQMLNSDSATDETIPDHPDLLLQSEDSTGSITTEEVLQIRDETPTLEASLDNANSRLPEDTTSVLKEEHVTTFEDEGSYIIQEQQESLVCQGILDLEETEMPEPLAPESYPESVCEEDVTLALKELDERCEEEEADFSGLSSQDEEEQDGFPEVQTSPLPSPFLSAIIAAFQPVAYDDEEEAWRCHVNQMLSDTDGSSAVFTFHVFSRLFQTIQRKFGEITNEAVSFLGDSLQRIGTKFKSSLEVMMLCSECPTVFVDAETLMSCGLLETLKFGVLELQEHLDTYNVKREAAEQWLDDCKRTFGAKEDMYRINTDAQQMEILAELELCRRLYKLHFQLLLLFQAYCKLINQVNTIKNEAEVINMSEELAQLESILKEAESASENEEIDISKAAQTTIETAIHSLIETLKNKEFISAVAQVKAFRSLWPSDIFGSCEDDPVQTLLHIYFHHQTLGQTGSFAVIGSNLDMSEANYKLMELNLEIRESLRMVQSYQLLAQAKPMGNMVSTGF
UniProt P25788: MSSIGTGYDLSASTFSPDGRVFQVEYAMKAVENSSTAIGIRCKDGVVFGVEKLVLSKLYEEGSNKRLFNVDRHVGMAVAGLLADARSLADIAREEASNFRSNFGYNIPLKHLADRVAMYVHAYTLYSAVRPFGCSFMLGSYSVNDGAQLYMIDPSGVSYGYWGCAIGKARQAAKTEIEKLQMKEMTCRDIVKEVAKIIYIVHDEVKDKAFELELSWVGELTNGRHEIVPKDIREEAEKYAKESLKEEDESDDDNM

T1: NHLRC2 (NHL-repeat-containing protein 2) (human (endogenous in THP-1)) (UniProt Q8NBF2)
T1 sequence: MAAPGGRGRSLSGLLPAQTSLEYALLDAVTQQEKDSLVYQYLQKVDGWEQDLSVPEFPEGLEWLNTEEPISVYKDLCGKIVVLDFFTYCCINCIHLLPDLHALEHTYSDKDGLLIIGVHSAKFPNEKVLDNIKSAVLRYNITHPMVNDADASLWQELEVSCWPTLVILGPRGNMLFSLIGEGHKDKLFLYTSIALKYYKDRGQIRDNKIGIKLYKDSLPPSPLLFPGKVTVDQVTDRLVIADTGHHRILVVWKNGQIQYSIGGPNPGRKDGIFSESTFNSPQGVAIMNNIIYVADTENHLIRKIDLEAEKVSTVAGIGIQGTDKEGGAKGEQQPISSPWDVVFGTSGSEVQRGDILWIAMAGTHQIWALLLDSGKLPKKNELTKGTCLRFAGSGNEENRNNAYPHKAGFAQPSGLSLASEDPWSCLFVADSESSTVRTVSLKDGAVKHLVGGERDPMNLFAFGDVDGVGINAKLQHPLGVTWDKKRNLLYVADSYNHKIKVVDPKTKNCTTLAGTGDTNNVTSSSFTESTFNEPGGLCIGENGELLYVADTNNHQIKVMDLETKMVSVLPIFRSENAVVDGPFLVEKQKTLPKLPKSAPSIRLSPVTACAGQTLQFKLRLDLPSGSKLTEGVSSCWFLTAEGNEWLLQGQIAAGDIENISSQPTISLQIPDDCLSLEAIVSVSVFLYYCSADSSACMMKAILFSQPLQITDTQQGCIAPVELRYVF


molecular target: T1, NHLRC2 (NHL-repeat-containing protein 2) (human (endogenous in THP-1)); test: affinity purification with mass spectrometry; anti-NHLRC2 antibody (HPA038493) on nondenaturing whole-cell lysates of WT and NHLRC2 mutant THP-1 cells, protein A magnetic beads, IgG isotype control; eluates separated on Tris-glycine gel, LC-MS/MS; proteins with quantitative value >0 in the IgG control removed

Row | binding | Molecule
1 | binds | EIF2AK2 (eukaryotic translation initiation factor 2 alpha kinase 2) (from UniProt P19525 1-551)
2 | binds | FRYL (FRY like transcription coactivator) (from UniProt O94915 1-3013)
3 | binds | PSMA3 (from UniProt P25788 1-255)
4 | binds | KLHL13 (Kelch like family member 13) (protein, UniProt Q9P2N7 1-655) MPLKWKTSSPAIWKFPVPVLKTSRSTPLSPAYISLVEEEDQHMKLSLGGSEMGLSSHLQSSKAGPTRIFTSNTHSSVVLQGFDQLRLEGLLCDVTLMPGDTDDAFPVHRVMMASASDYFKAMFTGGMKEQDLMCIKLHGVSKVGLRKIIDFIYTAKLSLNMDNLQDTLEAASFLQILPVLDFCKVFLISGVTLDNCVEVGRIANTYNLTEVDKYVNSFVLKNFPALLSTGEFLKLPFERLAFVLSSNSLKHCTELELFKATCRWLRLEEPRMDFAAKLMKNIRFPLMTPQELINYVQTVDFMRTDNTCVNLLLEASNYQMMPYMQPVMQSDRTAIRSDTTHLVTLGGVLRQQLVVSKELRMYDEKAHEWKSLAPMDAPRYQHGIAVIGNFLYVVGGQSNYDTKGKTAVDTVFRFDPRYNKWMQVASLNEKRTFFHLSALKGYLYAVGGRNAAGELPTVECYNPRTNEWTYVAKMSEPHYGHAGTVYGGVMYISGGITHDTFQKELMCFDPDTDKWIQKAPMTTVRGLHCMCTVGERLYVIGGNHFRGTSDYDDVLSCEYYSPILDQWTPIAAMLRGQSDVGVAVFENKIYVVGGYSWNNRCMVEIVQKYDPDKDEWHKVFDLPESLGGIRACTLTVFPPEETTPSPSRESPLSAP
